Test: Cure and colour measurements of coatings in the presence of anti-yellowing additives
Conditions: 50 μm coating, LED 395 nm; for Curing assessment: 5 W/cm2, 10 passes; for L* / a* / b*: 10 passes, colour immediately after cure
[1] = additive 0.1% wt in control hybrid formulation
[2] = additive 0.5% wt in control hybrid formulation
[3] = additive 1.0% wt in control hybrid formulation

Compound	Curing assessment [1]	L* [1]	a* [1]	b* [1]	Curing assessment [2]	L* [2]	a* [2]	b* [2]	Curing assessment [3]	L* [3]	a* [3]	b* [3]
O=C(O)CSc1ccccc1 [(Phenylthio)acetic acid]	Fully cured	83.76	7.49	13.93	Fully cured	88.46	1.78	12.28				
Cc1cc(C(C)(C)C)c(O)c(C(C)(C)C)c1 [BHT]	Fully cured	78.13	12.39	15.91	Fully cured	80.98	8.86	13.03	Fully cured	82.48	6.77	12.00
CCOC(=O)c1ccc(N(C)C)cc1 [Speedcure EDB]	Fully cured	78.65	10.84	16.55								
CC1(C)CCCC(C)(C)N1[O] [TEMPO]	Partly cured	80.39	14.05	17.28								

— US20260217983A1, “SULFONIUM SALT PHOTOINITIATORS AND METHODS OF LED CURING A COMPOSITION WITH SAID SULFONIUM SALT PHOTOINITIATORS” (ARKEMA FRANCE, priority 2022, published 2026)
